Measurements: EP3098228A1, “POLYOXOMOLYBDATE-BISPHOSPHONATE COMPLEX CONTAINING A HETEROMETALLIC ION DIFFERENT FROM MOLYBDENUM” (CENTRE NATIONAL DE LA RECHERCHE SCIENTIFIQUE, priority 2015, dated 2016)
Like-named read-outs stand apart in the source and are kept apart here.

System: Human tumor cell lines MCF-7 (breast adenocarcinoma)
Experiment: Cell-growth inhibition assay (MTT cell proliferation assay, 4 days)
Assay type: cell-based
Conditions: MCF7, 96 h, MCF-7, 4 days incubation
Procedure: Human tumor cell lines MCF-7 (breast adenocarcinoma were obtained from the National Cancer Institute and maintained at 100% humidity and 5% CO2 at 37 °C. Cell lines were cultured in RPMI-1640 medium supplemented with 2 mM L-glutamine and 10% fetal bovine serum (Gibco, Grand Island, NY) at 37°C in a 5% CO2 atmosphere with 100% humidity. Compound stock solutions were typically prepared in water at a concentration of 0.04 M. A broth microdilution method was used to determine the bisphosphonate growth inhibition IC50 values. Compounds were half log serial diluted using cell culture media into 96-well TC-treated round bottom plates (Corning Inc., Corning, NY) typically from 1264 µM to 40 nM, but in some cases compounds were run over a larger concentration range to enable accurate IC50 determinations. Cells were plated at a density of 5000 cells/well. […]

NCCCC(O)(P(=O)(O)O)P(=O)(O)O [Ale, alendronate]
IC50 (molar basis, read-out: IC50): 210 ± 6 µM
IC50 (per-bisphosphonate basis, read-out: IC50 per BP): 210 ± 6 µM
